# Data reported in paper doi:10.1101/2025.10.01.678329.
# Chains of the proteins cited; added tags and fusions are not shown. Lines headed by an entry give the natural chain unless they say otherwise; changes in a name come on top. Residues count along the entry.
# UniProt Q7Z2W4: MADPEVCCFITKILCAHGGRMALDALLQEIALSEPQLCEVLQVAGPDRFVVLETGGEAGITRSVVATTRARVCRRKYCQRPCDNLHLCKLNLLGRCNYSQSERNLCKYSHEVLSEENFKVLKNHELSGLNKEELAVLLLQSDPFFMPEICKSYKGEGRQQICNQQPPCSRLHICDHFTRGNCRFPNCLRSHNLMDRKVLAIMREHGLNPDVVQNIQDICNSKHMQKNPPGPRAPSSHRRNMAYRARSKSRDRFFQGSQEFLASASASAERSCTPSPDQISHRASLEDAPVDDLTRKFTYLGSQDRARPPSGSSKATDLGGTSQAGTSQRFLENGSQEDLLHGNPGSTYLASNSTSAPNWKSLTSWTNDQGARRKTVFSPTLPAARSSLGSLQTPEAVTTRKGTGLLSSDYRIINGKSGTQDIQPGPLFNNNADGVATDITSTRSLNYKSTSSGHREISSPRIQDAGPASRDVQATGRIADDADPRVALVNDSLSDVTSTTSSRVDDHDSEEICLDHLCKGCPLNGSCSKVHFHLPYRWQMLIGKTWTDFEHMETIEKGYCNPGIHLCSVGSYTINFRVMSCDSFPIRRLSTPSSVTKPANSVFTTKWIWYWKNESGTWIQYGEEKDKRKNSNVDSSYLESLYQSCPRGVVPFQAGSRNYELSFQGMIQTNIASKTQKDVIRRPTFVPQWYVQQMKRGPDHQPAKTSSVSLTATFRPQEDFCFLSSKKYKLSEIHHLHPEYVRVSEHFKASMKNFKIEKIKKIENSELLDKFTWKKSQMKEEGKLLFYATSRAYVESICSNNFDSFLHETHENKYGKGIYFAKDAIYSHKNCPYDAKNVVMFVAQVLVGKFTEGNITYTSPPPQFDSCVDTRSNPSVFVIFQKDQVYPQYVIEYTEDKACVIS
# UniProt Q86WV6: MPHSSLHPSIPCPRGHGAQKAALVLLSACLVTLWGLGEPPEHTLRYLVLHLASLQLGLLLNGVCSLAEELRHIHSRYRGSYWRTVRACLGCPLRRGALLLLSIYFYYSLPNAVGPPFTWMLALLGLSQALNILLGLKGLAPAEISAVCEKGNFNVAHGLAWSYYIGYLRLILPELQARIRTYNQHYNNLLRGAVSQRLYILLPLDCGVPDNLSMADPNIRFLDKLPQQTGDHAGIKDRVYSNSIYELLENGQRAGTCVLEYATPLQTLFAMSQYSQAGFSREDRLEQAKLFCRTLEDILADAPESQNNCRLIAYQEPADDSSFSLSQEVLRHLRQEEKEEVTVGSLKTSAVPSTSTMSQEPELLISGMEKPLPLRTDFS
# UniProt Q8IUD6: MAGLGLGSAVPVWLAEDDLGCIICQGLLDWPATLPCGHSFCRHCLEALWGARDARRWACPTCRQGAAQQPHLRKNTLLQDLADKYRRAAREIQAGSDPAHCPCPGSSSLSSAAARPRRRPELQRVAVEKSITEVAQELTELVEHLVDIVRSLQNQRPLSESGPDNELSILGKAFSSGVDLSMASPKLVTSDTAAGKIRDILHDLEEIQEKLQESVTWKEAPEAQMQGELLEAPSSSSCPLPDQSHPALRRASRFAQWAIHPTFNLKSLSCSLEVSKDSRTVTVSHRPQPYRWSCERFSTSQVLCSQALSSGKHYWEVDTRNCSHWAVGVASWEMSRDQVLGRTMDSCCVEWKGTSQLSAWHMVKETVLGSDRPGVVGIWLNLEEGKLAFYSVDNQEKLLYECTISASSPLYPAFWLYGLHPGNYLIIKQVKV
# UniProt Q14258: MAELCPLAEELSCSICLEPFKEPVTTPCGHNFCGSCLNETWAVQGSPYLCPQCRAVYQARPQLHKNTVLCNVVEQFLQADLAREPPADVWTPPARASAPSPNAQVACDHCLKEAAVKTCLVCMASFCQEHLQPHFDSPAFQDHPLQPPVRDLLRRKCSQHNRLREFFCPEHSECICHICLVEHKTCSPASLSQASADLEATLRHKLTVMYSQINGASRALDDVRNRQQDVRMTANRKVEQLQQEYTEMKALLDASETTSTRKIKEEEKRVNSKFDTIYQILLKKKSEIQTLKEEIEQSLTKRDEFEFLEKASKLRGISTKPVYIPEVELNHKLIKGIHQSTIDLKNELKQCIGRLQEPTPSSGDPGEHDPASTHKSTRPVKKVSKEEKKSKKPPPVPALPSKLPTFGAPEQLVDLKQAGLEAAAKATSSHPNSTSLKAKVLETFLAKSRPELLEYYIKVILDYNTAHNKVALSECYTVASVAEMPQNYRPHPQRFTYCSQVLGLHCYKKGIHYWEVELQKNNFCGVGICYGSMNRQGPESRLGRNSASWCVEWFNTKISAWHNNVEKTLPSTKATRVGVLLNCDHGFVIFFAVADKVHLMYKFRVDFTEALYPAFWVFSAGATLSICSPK
# UniProt Q6UXG8, residues 35-535: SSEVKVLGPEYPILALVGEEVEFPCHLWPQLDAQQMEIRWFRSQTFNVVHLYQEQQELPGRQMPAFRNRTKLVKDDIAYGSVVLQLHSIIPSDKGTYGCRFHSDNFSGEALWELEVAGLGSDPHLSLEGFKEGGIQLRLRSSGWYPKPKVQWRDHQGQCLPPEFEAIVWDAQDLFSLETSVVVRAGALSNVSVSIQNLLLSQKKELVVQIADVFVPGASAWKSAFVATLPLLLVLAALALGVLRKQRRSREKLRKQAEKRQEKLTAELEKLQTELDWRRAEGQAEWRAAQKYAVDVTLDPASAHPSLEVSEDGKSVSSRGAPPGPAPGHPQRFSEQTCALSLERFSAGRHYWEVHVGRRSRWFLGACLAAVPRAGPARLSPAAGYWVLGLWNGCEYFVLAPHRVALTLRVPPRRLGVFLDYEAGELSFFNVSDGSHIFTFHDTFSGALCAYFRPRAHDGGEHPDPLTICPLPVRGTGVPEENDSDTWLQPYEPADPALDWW
# UniProt Q61510: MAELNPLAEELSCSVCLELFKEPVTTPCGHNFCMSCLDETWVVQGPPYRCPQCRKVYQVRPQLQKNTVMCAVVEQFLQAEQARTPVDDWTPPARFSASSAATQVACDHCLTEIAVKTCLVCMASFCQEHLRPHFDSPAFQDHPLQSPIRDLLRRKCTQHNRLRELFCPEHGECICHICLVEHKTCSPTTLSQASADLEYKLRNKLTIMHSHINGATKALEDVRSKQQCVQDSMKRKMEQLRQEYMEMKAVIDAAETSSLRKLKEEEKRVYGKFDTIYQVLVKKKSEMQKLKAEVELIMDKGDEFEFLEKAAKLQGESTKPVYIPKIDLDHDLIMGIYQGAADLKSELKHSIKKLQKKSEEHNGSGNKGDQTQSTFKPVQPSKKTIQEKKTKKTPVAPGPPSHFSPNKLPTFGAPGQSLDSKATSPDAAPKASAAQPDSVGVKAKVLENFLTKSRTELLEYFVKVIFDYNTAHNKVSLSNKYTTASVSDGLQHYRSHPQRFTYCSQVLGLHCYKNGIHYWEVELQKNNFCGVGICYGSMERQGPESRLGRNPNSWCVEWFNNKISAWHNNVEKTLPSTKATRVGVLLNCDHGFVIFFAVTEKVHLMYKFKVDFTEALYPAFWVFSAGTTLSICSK
# Read-outs that look alike come from different tables or passages of the source. These are yes or no findings as the source states them, for the method shown. Binding seen in cells or lysates may run through a third protein. Some results given as binding are weak or reduced against the parent protein; the word gives no strength. For part of these data: Sequences can lack the tags named with a protein.
# Tests used:
# Assay in all cases: co-IP
# ZAP-L-FLAG (human) [1] = biological target: ZAP-L-FLAG (human) (UniProt Q7Z2W4)
# RIG-I-FLAG (human) = biological target: T1, RIG-I-FLAG (human) (UniProt O95786)
# T1 sequence: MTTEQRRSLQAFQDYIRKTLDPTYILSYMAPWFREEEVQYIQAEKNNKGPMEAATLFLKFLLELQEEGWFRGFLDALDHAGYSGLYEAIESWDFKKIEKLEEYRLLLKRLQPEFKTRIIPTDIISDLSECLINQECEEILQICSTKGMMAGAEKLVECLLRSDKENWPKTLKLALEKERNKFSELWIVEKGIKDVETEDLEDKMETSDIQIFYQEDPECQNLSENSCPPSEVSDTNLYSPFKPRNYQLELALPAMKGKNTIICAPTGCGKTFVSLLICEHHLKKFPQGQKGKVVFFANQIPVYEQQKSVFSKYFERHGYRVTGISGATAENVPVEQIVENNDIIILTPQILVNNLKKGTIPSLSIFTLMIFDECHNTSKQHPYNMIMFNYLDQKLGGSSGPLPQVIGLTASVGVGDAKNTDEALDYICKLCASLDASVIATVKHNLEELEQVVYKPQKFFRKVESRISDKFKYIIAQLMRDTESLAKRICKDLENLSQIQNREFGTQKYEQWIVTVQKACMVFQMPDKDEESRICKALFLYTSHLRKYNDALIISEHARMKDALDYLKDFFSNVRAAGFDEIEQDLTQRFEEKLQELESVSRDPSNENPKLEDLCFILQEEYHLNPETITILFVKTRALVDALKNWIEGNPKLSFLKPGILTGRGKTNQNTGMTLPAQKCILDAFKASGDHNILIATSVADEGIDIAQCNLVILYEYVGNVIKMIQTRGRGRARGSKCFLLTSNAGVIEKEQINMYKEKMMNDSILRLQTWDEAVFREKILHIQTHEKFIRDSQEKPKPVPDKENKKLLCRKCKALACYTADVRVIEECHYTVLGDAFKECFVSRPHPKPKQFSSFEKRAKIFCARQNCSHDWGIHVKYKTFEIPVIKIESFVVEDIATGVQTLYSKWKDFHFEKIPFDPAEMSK
# ZAP-L-FLAG (human) [2] = biological target: ZAP-L-FLAG (human) (UniProt Q7Z2W4); remark: listed apart in the source
# ZAP-L-FLAG (human) [3] = biological target: ZAP-L-FLAG (human) (UniProt Q7Z2W4); remark: listed apart in the source
# ZAP^E39K (human) = ZAP^E39K (human) (UniProt Q7Z2W4)
# STING-FLAG (human) = STING-FLAG (human) (UniProt Q86WV6)
# mouse ZAP-L (mouse) = biological target: T2, mouse ZAP-L (mouse) (UniProt Q3UPF5)
# T2 sequence: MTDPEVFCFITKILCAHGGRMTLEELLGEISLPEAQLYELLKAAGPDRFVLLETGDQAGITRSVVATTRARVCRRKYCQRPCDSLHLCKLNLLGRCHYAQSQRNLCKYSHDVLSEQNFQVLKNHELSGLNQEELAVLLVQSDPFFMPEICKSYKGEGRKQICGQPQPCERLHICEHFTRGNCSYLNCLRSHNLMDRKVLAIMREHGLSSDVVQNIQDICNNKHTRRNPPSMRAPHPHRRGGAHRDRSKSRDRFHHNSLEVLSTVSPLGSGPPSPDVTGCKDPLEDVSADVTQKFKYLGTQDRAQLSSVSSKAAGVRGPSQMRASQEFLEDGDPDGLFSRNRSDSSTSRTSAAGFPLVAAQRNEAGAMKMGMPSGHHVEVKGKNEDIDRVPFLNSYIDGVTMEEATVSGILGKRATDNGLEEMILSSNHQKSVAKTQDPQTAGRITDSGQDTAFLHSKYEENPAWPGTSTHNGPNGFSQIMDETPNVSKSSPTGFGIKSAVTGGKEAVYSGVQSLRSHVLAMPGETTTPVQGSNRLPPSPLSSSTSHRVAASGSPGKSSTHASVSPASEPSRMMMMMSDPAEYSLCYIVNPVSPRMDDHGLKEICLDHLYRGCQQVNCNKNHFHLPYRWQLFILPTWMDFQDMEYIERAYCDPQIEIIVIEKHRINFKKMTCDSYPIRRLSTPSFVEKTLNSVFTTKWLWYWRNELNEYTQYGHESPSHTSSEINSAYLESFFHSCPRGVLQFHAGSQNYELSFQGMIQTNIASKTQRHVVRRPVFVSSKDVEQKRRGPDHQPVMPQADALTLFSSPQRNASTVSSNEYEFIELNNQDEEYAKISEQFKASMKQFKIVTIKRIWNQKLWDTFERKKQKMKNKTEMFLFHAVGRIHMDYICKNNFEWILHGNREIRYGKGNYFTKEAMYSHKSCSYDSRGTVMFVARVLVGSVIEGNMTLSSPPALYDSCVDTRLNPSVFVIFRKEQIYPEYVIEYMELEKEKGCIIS
substance,measurement,setting,value
Riplet with the SPRY domain of TRIM25 (Riplet-T25^SPRY) (from UniProt Q8IUD6 1-240; Q14258 404-630),binding,ZAP-L-FLAG (human) [1],binds
TRIM25 with the SPRY domain of Riplet (T25-Riplet^SPRY) (from UniProt Q14258 1-403; Q8IUD6 241-432),binding,RIG-I-FLAG (human),binds
TRIM25-HA (from UniProt Q14258 1-630) (enzyme),binding,ZAP-L-FLAG (human) [1],binds
same,binding,ZAP-L-FLAG (human) [2],binds
same,binding,ZAP-L-FLAG (human) [3],binds
TRIM25^K469E (from UniProt Q14258 1-630) (enzyme),binding,ZAP-L-FLAG (human) [1],binds
same,binding,ZAP^E39K (human),binds
butyrophilin-like 9 (BTNL9)-HA (from UniProt Q6UXG8 35-535),binding,STING-FLAG (human),binds
mouse TRIM25 (from UniProt Q61510 1-634) (enzyme),binding,mouse ZAP-L (mouse),binds
